Data set [1] in a line: general procedure: Fmoc solid-phase peptide synthesis; NovaPEG Rink Amide resin or NovaPEG TGT resin (Novabiochem); HCTU/DIPEA. Conditions: for step yield: late stage modification step.
Data set [2] can be described thus: general procedure: Fmoc solid-phase peptide synthesis; NovaPEG Rink Amide resin; HCTU/DIPEA. Conditions: whole synthesis, scale 0.2 mmol.

Regarding “Cys(Acm)-Gly-Gly-Gly-Gly-Dphe-Pip-Arg-PABC-rRAPGKLTCLASYCWLFWTGIA-NH2 (disulfide)”, the step yield in data set [1] (over 2 steps) is given as 12% over 2 steps.
With “Fmoc-Cys(Acm)-Gly-Gly-Gly-Gly-Dphe-Pip-Arg(Pbf)-PABC-PNP”, in data set [1], the step yield was 75%.
As for “Fmoc-Cys(Acm)-Gly-Gly-Gly-Gly-Dphe-Pip-Arg(Pbf)-PABOH”, the step yield in data set [1] came out at 70%.
With “Fmoc-Cys(Acm)-Gly-Gly-Gly-Gly-Dphe-Pip-Arg-PABC-rRAPGK(Alloc)LTCLASYCWLFWTGIA-NH2”, the conjugation yield in data set [1] (conjugation step, over 2 steps) worked out at 25% for 2 steps.
The substance “rRAPGK(Alloc)LTCLASYCWLFWTGIA-NH2 (disulfide)” had an isolated mass in data set [2] of 35 mg.

These data come from patent US11261437B2 (Bioverativ Therapeutics Inc., priority 2012, dated 2022).
